Drawing on article PMC4582117, “VEGF-A/NRP1 stimulates GIPC1 and Syx complex formation to promote RhoA activation and proliferation in skin cancer cells” (Biology Open, 2015), this text covers binding for three molecules.

Amino acid sequences for entries named in this document (tags omitted). Residues count along the entry.
UniProt O14786, residues 22-923: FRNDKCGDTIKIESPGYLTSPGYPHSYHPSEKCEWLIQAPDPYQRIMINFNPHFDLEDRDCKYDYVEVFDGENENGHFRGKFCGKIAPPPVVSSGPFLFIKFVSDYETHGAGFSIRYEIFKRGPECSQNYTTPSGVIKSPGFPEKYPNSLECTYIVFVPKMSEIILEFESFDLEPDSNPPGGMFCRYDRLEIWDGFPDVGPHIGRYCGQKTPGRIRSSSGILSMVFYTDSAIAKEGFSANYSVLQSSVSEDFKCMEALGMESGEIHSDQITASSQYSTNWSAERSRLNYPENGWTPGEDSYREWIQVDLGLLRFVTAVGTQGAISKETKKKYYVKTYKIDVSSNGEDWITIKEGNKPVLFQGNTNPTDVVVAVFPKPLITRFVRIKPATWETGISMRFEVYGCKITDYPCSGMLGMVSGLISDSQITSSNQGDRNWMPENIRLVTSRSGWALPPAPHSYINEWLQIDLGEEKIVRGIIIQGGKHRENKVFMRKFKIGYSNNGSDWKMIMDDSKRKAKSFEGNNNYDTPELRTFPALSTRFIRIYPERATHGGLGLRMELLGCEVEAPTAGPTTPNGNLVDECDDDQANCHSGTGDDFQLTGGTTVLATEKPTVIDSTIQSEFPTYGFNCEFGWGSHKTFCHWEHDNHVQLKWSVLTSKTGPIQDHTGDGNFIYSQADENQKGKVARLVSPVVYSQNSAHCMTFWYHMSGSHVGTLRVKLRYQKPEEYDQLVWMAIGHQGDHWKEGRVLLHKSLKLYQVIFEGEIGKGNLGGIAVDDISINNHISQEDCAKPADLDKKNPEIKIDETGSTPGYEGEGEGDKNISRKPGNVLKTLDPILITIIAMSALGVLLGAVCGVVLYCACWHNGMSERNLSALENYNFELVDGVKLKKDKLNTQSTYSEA

No constants are given. Whether binding was seen depends on the method and setting. Binding seen in cells or lysates may run through a third protein. Some results given as binding are weak or reduced against the parent protein; the word gives no strength. Sequences can lack the tags named with a protein.

The target of assay [1] is T1, HA-tagged GIPC1 (GAIP interacting protein C terminus) (UniProt O14908).
T1 sequence: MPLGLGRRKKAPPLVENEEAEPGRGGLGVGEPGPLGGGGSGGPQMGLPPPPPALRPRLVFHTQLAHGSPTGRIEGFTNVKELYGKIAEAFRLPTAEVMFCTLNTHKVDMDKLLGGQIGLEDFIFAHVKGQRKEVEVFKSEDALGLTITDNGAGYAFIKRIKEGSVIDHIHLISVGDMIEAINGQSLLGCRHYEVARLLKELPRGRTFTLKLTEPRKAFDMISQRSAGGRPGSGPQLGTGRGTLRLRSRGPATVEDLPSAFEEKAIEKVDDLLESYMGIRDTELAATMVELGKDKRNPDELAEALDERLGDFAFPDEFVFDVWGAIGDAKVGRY
Kind of assay: co-IP; NRP1, HA-GIPC1 and V5-Syx co-expressed in HEK293T; cells without or with VEGF-A (100 ng/ml, 15 min); lysed in RIPA buffer; immunoprecipitated with GIPC1 (anti-HA), Protein G Sepharose, 4°C; western blot.

Assay [2] has as its target T2, V5-tagged Syx (UniProt O94827).
T2 sequence: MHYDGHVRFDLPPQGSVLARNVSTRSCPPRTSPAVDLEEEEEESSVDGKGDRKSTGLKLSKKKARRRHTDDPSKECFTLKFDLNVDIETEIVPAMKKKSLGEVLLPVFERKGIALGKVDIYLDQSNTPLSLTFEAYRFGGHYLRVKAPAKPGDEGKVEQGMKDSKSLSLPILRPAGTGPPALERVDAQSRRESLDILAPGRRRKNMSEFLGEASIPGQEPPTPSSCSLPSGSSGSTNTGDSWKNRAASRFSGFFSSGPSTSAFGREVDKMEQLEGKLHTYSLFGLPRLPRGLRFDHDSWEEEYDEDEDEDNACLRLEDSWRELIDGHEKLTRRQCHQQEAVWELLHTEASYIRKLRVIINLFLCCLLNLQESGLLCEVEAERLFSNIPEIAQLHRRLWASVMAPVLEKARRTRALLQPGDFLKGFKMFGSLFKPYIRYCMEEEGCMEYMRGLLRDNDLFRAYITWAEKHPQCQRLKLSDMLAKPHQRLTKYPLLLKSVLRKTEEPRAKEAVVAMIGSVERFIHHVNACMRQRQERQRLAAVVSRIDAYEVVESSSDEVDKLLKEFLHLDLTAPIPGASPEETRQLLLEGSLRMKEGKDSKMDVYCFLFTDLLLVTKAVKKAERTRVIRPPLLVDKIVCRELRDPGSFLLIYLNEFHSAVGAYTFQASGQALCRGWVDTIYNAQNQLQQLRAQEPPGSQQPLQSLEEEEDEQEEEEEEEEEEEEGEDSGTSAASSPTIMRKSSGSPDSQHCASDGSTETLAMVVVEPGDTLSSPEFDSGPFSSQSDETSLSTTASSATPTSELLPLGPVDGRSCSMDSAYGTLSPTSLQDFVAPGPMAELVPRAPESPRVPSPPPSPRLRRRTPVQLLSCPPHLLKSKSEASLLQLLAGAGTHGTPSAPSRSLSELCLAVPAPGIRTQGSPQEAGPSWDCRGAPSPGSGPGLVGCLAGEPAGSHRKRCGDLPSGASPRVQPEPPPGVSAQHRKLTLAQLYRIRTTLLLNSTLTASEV
Kind of assay: co-IP; NRP1, HA-GIPC1 and V5-Syx co-expressed in HEK293T; cells without or with VEGF-A (100 ng/ml, 15 min); lysed in RIPA buffer; immunoprecipitated with Syx, Protein G Sepharose, 4°C; western blot. (In western blotting, separated proteins are transferred to a membrane and probed.)

Assay [3] has as its target T2, V5-tagged Syx. Kind of assay: co-IP; NRP1, GIPC1 and Syx expressed in HEK293T; cells treated with the Targeted or Scrambled peptide for 16 h, then without or with VEGF-A (100 ng/ml, 10 min); lysates immunoprecipitated with V5-tagged Syx; blot for GIPC1.

As for “Human NRP1WT (Neuropilin-1 wild type) (from UniProt O14786 22-923) (receptor)”, the binding result in assay [1] and in assay [2] was “binds” each time.

B1: HA-tagged GIPC1 (GAIP interacting protein C terminus) (protein, UniProt O14908 1-333)
chain: T1 sequence
B1: the binding result in assay [2] and in assay [3] was “binds” in each case.

B2: V5-tagged Syx (protein, UniProt O94827 1-1006)
chain: T2 sequence
Consider B2, for which the binding entry in assay [1] was “binds”.
